Experimental data reported in paper PMC12711579.
These are yes or no findings as the source states them, for the method shown. For some assays here: A result given as binding can be weak or reduced; the word gives no strength.

Legend:
Test in all cases: two-hybrid; Clontech Matchmaker Gold; pGADT7 (AD) and pGBKT7 (BD) fusions co-transformed into Y2H Gold yeast; serial dilutions on DDO, TDO (−His/−Leu/−Trp, screens for weak interactions) and QDO (−His/−Ade/−Leu/−Trp, screens for strong interactions); 3–5 days at 30 °C
PCH2 (A. thaliana) = biological target: T1, PCH2 (A. thaliana) (UniProt Q8H1F9)
T1 sequence: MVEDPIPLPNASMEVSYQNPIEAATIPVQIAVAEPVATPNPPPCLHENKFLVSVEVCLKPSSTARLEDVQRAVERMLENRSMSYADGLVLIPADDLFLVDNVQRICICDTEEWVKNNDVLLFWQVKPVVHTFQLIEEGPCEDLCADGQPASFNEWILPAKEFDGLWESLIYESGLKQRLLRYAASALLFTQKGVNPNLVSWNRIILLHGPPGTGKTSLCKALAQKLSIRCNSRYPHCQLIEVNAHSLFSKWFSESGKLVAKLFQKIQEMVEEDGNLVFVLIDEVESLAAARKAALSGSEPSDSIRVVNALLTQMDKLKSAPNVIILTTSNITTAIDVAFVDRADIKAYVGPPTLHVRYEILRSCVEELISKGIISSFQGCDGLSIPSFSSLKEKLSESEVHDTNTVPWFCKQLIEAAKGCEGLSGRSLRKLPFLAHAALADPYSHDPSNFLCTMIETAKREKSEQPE

ASY1 (A. thaliana) = biological target: T2, ASY1 (A. thaliana) (UniProt F4HRV8)
T2 sequence: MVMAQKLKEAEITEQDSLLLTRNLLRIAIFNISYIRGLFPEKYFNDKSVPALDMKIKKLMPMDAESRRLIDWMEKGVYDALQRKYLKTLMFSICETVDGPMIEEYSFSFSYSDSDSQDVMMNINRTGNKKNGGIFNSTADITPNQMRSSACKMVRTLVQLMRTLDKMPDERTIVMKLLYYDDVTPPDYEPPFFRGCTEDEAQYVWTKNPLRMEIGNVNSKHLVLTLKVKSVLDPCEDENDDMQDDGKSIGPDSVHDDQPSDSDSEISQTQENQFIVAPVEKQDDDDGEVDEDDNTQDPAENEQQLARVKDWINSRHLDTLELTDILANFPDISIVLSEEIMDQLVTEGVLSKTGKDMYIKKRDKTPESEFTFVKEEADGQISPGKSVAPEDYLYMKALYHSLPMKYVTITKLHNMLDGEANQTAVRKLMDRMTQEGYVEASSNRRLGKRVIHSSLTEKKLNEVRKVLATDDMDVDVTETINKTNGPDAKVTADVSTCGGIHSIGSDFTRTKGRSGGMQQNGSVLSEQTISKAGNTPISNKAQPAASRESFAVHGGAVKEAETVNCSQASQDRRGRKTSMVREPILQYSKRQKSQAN

ASY3 (A. thaliana) = biological target: T3, ASY3 (A. thaliana) (UniProt Q0WR66)
T3 sequence: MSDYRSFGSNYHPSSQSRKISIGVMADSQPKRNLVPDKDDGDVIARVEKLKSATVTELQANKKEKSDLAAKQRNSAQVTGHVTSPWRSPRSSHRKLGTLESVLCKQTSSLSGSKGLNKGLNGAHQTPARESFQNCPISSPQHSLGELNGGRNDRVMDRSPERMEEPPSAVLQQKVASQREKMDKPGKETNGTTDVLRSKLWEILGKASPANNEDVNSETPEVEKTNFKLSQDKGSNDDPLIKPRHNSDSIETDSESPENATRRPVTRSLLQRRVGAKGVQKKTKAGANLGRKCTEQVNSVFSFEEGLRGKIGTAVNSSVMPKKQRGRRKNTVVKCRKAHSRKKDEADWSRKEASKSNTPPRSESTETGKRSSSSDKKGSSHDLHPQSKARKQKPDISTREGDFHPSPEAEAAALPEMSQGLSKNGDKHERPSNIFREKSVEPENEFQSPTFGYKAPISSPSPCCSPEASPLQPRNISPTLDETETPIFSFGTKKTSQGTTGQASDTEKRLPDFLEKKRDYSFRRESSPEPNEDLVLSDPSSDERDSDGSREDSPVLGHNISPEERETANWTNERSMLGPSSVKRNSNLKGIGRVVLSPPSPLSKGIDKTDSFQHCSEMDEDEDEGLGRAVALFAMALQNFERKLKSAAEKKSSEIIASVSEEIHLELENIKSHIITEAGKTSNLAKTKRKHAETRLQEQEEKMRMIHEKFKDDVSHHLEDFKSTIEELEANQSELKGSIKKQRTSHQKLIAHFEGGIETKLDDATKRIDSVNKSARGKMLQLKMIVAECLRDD

HEI10 (A. thaliana) = biological target: T4, HEI10 (A. thaliana) (UniProt F4HRI2)
T4 sequence: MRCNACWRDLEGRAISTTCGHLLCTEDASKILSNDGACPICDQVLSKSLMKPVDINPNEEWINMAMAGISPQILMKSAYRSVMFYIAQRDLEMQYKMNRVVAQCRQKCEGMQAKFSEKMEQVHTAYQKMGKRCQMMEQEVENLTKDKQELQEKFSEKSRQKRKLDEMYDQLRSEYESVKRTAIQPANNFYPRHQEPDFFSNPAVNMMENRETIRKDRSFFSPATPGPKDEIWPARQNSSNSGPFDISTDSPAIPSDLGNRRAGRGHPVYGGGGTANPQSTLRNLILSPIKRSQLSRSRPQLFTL

MLH1 (A. thaliana) = biological target: T5, MLH1 (A. thaliana) (UniProt Q9ZRV4)
T5 sequence: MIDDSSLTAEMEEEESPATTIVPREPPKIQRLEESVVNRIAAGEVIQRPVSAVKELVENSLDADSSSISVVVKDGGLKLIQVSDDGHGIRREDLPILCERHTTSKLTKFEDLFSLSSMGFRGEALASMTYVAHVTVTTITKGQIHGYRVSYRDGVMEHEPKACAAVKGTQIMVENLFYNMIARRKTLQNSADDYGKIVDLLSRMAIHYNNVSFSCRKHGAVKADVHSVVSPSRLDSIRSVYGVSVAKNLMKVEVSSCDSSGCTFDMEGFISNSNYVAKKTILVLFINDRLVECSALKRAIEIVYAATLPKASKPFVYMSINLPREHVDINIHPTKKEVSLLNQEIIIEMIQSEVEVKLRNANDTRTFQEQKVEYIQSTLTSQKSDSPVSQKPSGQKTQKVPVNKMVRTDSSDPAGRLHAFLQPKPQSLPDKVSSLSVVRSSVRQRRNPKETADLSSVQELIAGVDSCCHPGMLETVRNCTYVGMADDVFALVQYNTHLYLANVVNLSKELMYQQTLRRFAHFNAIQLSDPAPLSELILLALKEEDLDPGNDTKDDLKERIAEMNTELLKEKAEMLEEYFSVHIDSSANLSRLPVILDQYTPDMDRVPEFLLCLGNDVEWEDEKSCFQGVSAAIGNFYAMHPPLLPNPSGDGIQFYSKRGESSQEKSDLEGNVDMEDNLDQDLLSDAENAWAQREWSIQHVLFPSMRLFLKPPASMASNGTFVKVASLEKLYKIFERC

SCEP3, full-length (AD–SCEP3) (from UniProt A0A1P8B5T3)
binding (PCH2 (A. thaliana)): binds | binding (ASY1 (A. thaliana)): no binding | binding (ASY3 (A. thaliana)): no binding | binding (HEI10 (A. thaliana)): no binding | binding (MLH1 (A. thaliana)): no binding
